# Data: article PMC7245964
# No constants are given. Whether binding was seen depends on the method and setting. Some entries that bind do so weakly or less than the wild type.
# Target: Hansenula polymorpha Cdc13 (Hansenula polymorpha DL-1 (ATCC 26012, Ogataea parapolymorpha DL-1)) (UniProt W1QJ57)
# Assay: two-hybrid; Gal4-BD (pGBKT7) and Gal4-AD (pGADT7) fusions cotransformed into S. cerevisiae AH109; HIS3 reporter, growth on SC-Leu-Trp-His; 30°C for four days
binder,measurement,value
"Hansenula polymorpha Cdc13 (protein, UniProt W1QJ57 1-403) MSQKSVDILRVRDLPVTTFTRKRIMGLVVGITTRDRPTKPIVVHMTDFSRNPSVAQSEMNYANCDPPLFDAPEQADSIIDVAFYPESVTHLKRIFGDKVNARWFDNRTASFYPLYQHATVISLRLRSKTWGDQIDLIADPGFSDNCYSQIWPVSTLEARDNPAAETIYDPNENNYALAREVFRDWQLQCSTYFKSNPKIKQVVGDLCESVTSMTYSPPQKLHRHTSPEQYSDTGFLSDMVSSDDEGPPKKEYKREVPVKQSRYVKDTPNVTFPVSQIPLADYTGAYFIYVQIMRLETRTADLIYKSFPENTIMTKAIDVLVKEVDSAATLRIRVEGYDLFRFAGITFRYPLLDMTAAEAETAKKLAALVHKPLRMLVKPYALPLEAATVNTGRCYRWLYTEYP",binding,binds
